Measured values: patent US6762294B2, “Polynucleotides encoding polymorphic human GABAA receptor α-6 subunit” (The United States of America as represented by the …, priority 1999, dated 2004)

Settings: after iv diazepam, cumulative 200 μg/kg, all time points

For `O=C1CN=C(c2ccccc2)c2cc(Cl)ccc2N1` [desmethyldiazepam], the “Plasma level of the metabolite relative to parent drug” value was “much lower than levels of the parent drug”.
